# In publication PMC3563301 (Journal of medicinal chemistry, 2012):
# Tests used:
# [1] = tested on: HeLa, HT29, A549, HCT 116, and HCT 15 cell lines; experiment: Average growth inhibition over five cell lines; type: cell-based; conditions: Homo sapiens, read-out: average IC50 for the five cell lines
# [2] = tested on: MCF-7 human breast carcinoma cells; experiment: Growth inhibition of MCF-7 cells; type: cell-based; conditions: MCF7, 96 h, read-out: MCF-7 IC50 ± SD
structure (smiles),measurement,setting,value
"COc1cc2c(c(OC)c1OC)-c1ccc(OC)c(=O)cc1[C@@H](NC(C)=O)CC2 [Compound 1, colchicine]",IC50,[1],34 nM
same,IC50,[2],5 ± 1 nM
